Assay results from US20260103528A1.

B1: candidate nanobody 1-F7 (VHH, not shown: large carriers)
VHH: QLQLVESGGGLVQPGGSLRLSCAASGSIFSVHDMAWYRQAPGKQRELVAAITSGGKANYPDSVKGRFTISRDNAKNTVYLEMNRLKPEDTAVYYCNKRWPVKYAWGQGTQVTVSS
B2: candidate nanobody 1-E8 (VHH, not shown: large carriers)
VHH: DVQLQESGGGLVQAGGSLRLSCAASGRAFSNYAMGWFRQAPGKEREFVAEASWSGRSTRYADSVKGRFTISRDNAKNTGYLQMSNLKPEDTAVYYCATSRTVVIGPGAKYDYWGQGTQVTVSS
B3: candidate nanobody 1-D9 (VHH, not shown: large carriers)
VHH: QVQLVESGGGSVQAGGSLRLSCAASERTFSNYAMGWFRQAPGKEREFVAAIAWSGEITNYADSVKGRFTVSRDIDKNTVYLQMNSLKPEDTAVYYCAGVRYRNYRTTRPTDFGSWGQGTQVTVSS
B4: candidate nanobody 1-C12 (VHH, not shown: large carriers)
VHH: EVQVVESGGGLVQAGGSLRVSCAASERTLSNYVMGWFRQAPGKSREFVAGIRWADGASYYADSVKGRFTISRDNAGNTVYLQMNSLKPEDTAVYYCTGGGIRTWSRKDPTSYRYWGQGTQVTVSS
B5: candidate nanobody 1-G7 (VHH, not shown: large carriers)
VHH: EVQLVESGGGLAQPGGSLRLSCAASGIISSAYIMGWYRQAPGKQRELVATINGGRLNYADSVKGRFTISSDNAKNTVYLQMNSLKPEDTAVYYCYAQRTNAYWGQGTQVTVSS

Each binder was assayed against Flag-tagged GPRC5D membrane protein (human) (assay: ELISA, phage-displayed nanobody on purified GPRC5D protein (FIG. 7)).
With B1 the binding was “binds”.
In the case of B2, the binding is reported as “binds”.
B3 was tested, and the binding was “binds”.
For B4, the binding was “binds”.
With B5 the binding was “binds”.

No constants are given. Whether binding was seen depends on the method and setting. A result given as binding can be weak or reduced; the word gives no strength.
